From patent US20170348213A1, “Oral Care Composition” (Colgate-Palmolive Company, priority 2014, published 2017)
At least one compound was matched to its structure with a doubt left.

Test: Antioxidant activity, LPO-CC kit (Kamiya Biomedical Company)
Type: biochemical
Conditions: agent at 1% in ethanol
Procedure: The antioxidant activity of rutin was tested using an LPO-CC kit (Kamiya Biomedical Company), and compared to that of vitamin E. (The agents were tested in an amount of 1% in ethanol). The lower the optical density, the better the antioxidant capacity. The higher the percentage cumeme hydroperoxide reduction, the better the antioxidant capacity. The antioxidant efficacy of the formulations was also tested using the methods described in Example 5. The results are illustrated in Table 9a and 9b.

C[C@@H]1O[C@@H](OC[C@H]2O[C@@H](Oc3c(-c4ccc(O)c(O)c4)oc4cc(O)cc(O)c4c3=O)[C@H](O)[C@@H](O)[C@@H]2O)[C@H](O)[C@H](O)[C@H]1O [rutin]
% reduction of cumeme hydroperoxide (higher = better antioxidant capacity): 35.6517% | Optical Density at 675 nm (lower optical density = better antioxidant capacity): 0.2864
